The other results are listed elsewhere or left out.
Compound: Cc1cc(ccc1-c1ccccc1)C(=O)N1CCCN(CC1)C(=O)CCl [compound 10]
Assay: probe-labelled cysteine peptide fold change vs DMSO (competition) (log2 fold change); higher = less target engagement (more negative = stronger competition)
Details: THP-1, incubation time: 4 h
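Further: competitive profiling in live THP-1 cells: cysteine peptides tagged with an iodoacetamide desthiobiotin (IA-DTB) probe, intensity after compound treatment relative to DMSO-treated cells.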

Amino acid sequences for entries named in this document (tags omitted). A change or cut given only in a name is not applied to a line headed by its entry.
UniProt P23141: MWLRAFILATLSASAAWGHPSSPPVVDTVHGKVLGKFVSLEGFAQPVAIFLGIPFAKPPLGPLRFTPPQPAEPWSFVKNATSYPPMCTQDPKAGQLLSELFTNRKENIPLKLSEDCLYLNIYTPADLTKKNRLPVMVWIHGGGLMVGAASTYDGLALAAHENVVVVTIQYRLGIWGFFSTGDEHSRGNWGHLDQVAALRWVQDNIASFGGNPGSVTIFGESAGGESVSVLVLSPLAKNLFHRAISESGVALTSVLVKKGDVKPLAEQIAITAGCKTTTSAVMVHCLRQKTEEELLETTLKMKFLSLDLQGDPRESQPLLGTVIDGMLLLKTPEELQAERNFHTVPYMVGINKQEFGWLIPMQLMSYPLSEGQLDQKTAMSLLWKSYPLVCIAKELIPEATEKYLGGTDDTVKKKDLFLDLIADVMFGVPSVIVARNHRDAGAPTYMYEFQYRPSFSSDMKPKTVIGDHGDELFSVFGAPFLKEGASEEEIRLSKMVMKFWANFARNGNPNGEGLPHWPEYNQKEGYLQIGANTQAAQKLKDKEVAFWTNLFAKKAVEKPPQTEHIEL
UniProt Q92879: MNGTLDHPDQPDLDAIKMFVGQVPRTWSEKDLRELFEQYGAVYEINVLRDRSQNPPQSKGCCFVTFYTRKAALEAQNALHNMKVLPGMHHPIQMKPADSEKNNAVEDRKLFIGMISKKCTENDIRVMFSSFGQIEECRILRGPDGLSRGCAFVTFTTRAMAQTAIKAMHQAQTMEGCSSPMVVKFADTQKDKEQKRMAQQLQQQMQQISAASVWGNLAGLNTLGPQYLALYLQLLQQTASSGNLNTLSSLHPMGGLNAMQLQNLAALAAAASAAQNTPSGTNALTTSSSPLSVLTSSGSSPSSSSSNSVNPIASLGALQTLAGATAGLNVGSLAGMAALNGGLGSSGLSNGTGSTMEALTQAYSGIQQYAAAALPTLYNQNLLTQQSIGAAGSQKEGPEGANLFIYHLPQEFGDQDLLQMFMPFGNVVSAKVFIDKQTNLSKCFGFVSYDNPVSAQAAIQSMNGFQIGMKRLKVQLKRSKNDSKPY
UniProt P25942, whole entry, looked up: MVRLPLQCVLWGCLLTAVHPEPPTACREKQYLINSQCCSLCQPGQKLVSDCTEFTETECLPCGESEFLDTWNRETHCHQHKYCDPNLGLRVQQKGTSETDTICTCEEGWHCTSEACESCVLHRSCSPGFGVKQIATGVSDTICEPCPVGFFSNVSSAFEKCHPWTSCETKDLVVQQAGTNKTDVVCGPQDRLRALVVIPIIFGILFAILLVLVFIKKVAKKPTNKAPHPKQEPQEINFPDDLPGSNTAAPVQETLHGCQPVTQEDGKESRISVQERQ
UniProt Q9UJX2, whole entry, looked up: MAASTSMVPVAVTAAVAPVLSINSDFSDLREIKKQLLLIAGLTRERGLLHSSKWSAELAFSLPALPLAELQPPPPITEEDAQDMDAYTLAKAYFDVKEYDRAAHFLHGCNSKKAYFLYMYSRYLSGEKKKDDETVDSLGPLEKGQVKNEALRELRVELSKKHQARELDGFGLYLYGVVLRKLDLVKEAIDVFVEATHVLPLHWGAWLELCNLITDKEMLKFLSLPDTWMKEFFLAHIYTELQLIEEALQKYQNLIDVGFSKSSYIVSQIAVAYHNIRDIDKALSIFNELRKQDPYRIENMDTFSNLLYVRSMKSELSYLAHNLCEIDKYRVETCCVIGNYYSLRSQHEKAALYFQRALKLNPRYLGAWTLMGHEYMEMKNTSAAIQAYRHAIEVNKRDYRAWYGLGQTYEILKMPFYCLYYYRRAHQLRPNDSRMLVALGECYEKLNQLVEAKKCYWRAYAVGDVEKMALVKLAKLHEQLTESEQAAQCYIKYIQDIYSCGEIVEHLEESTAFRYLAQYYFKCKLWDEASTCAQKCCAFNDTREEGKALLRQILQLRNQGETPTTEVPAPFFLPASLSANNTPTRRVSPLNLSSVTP

| Target | probe-labelled cysteine peptide fold change (10 µM) | probe-labelled cysteine peptide fold change (50 µM) |
| --- | --- | --- |
| CES1_P23141_390_SYPLVCIAK (UniProt P23141) | 0.304 | -0.0814 |
| CELF1_Q92879_137_VMFSSFGQIEECR (UniProt Q92879) | 0.192 | 0.0111 |
| CD40_P25942_111_GTSETDTICTCEEGWHCTSEACESCVLHR (UniProt P25942) | 0.163 | 0.149 |
| CDC23_Q9UJX2_489_LHEQLTESEQAAQCYIK (UniProt Q9UJX2) | -0.0653 | -0.11 |
